We go through one compound from patent US20090074845A1, “TRANSDERMAL ACTIVE PRINCIPLE DELIVERY MEANS” (priority 2005, published 2009).

Data set [1] deals with Varicella Zoster Virus (Ellen strain).
The conditions of data set [2]: 72 hours.
For data set [3] the following is noted: patches F:D 1:1 across pig skin.
Data set [4] can be described thus: Diffusional release of D and F from drug-in-adhesive patches. Type of data set: physicochemical.
For data set [5] the following is noted: at therapeutic concentrations; cited from earlier work.
Data set [6] can be described thus: Drug permeation through porcine ear skin (Franz diffusion cells).

Turning to `NS(=O)(=O)c1cc(C(=O)O)c(NCc2ccco2)cc1Cl` [Furosemide, 4-chloro-N-furfuryl-5-sulfamoylanthranilic acid], the inhibition (usually the drop in the measured response relative to a control, in per cent) in data set [1] is about 50%. Besides, the “accumulation within the skin” value in data set [2] is given as “did not accumulate within the skin”. Further, the Apparent flux maximum in data set [3] is given as 0.158 μgcm^−2 h^−1. In addition, the “maximum mass released, maximal dose of furosemide” value in data set [4] is about 432.02 μg cm^−2. Also, the unbound fraction in data set [5] was 2.3-4.4%. Moreover, the Apparent maximum flux (Collodion F:D 1:1 across pig skin) came to 4.3423 μgcm^−2 h^−1. The AMF (Collodion, calculated between 6-12 hr) was 4.3423 μg cm^−2 h^−1. In addition, the “rate of furosemide penetrating porcine ear skin” value in data set [6] stood at 4.32e-08 cm/s. Besides, in data set [6] (through porcine ear skin, mean over formulations), the “Kp Mean” value was 4.32e-07 cm/s. Besides, in the data set with MRC5 cells, the “MRC5 cell metabolism (MTT assay)” value was “normal levels of metabolism”.
